{"source": "PubChem BioAssay AID1259308 (NCATS, 2017)", "purpose": "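Genes whose loss raises luciferase production in HEK293 cells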 (primary screen)", "system": "human HEK293 embryonic kidney cells stably expressing firefly luciferase (HEK-CMV-Luc2-Hygro)", "reagent": "single siRNA against human genes, 0.8 pmol siRNA per well", "timing": "72 h", "measurement": "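Reporter luminescence and viable-cell signal on separate replicate plates, given as percent of non-targeting control and median/MAD z-scores, plus per-cell luciferase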", "scale": "total luciferase, z-score and total luciferase, % of control: higher = more reporter protein produced", "call rule": "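Active when the median/MAD z-score for overall luciferase is greater than 3; a gene was taken forward for validation with new siRNAs if at least two of its three siRNAs passed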", "calls": "active = raised luciferase; inactive = no rise", "note": "Shown is an unselected part of about 59,000 reagents tested. In the full data, about 1,510 (2.6%) are marked active. 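Calls use total luciferase alone and ignore viability, so some active siRNAs may act by altering cell number.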 The numbers tell different reagents against one gene apart. Further read-outs or replicates are left out here."}
{"gene knocked down": "BAALC (BAALC binder of MAP3K1 and KLF4)", "siRNA no.": 1, "total luciferase, z-score": 0.569, "total luciferase, % of control": 93.2, "Call": "inactive"}
{"gene knocked down": "BAALC (BAALC binder of MAP3K1 and KLF4)", "siRNA no.": 2, "total luciferase, z-score": 0.164, "total luciferase, % of control": 85.1, "Call": "inactive"}
{"gene knocked down": "BAALC (BAALC binder of MAP3K1 and KLF4)", "siRNA no.": 3, "total luciferase, z-score": 0.442, "total luciferase, % of control": 90.7, "Call": "inactive"}
{"gene knocked down": "PTCHD3P1 (patched domain containing 3 pseudogene 1)", "siRNA no.": 1, "total luciferase, z-score": 0.194, "total luciferase, % of control": 85.7, "Call": "inactive"}
{"gene knocked down": "PTCHD3P1 (patched domain containing 3 pseudogene 1)", "siRNA no.": 2, "total luciferase, z-score": -0.342, "total luciferase, % of control": 75.1, "Call": "inactive"}
{"gene knocked down": "PTCHD3P1 (patched domain containing 3 pseudogene 1)", "siRNA no.": 3, "total luciferase, z-score": 0.471, "total luciferase, % of control": 91.2, "Call": "inactive"}
{"gene knocked down": "LGALS9B (galectin 9B)", "siRNA no.": 1, "total luciferase, z-score": -1.78, "total luciferase, % of control": 46.6, "Call": "inactive"}
{"gene knocked down": "LGALS9B (galectin 9B)", "siRNA no.": 2, "total luciferase, z-score": -2.03, "total luciferase, % of control": 41.6, "Call": "inactive"}
{"gene knocked down": "LGALS9B (galectin 9B)", "siRNA no.": 3, "total luciferase, z-score": 0.606, "total luciferase, % of control": 93.9, "Call": "inactive"}
{"gene knocked down": "CETN2 (centrin 2)", "siRNA no.": 1, "total luciferase, z-score": -0.369, "total luciferase, % of control": 74.5, "Call": "inactive"}
{"gene knocked down": "CETN2 (centrin 2)", "siRNA no.": 2, "total luciferase, z-score": -0.0879, "total luciferase, % of control": 80.1, "Call": "inactive"}
{"gene knocked down": "CETN2 (centrin 2)", "siRNA no.": 3, "total luciferase, z-score": -0.247, "total luciferase, % of control": 77, "Call": "inactive"}
{"gene knocked down": "GNAI3 (G protein subunit alpha i3)", "siRNA no.": 1, "total luciferase, z-score": -0.769, "total luciferase, % of control": 66.6, "Call": "inactive"}
{"gene knocked down": "GNAI3 (G protein subunit alpha i3)", "siRNA no.": 2, "total luciferase, z-score": 1.46, "total luciferase, % of control": 111, "Call": "inactive"}
{"gene knocked down": "GNAI3 (G protein subunit alpha i3)", "siRNA no.": 3, "total luciferase, z-score": -0.435, "total luciferase, % of control": 73.2, "Call": "inactive"}
{"gene knocked down": "UBAP2 (ubiquitin associated protein 2)", "siRNA no.": 1, "total luciferase, z-score": 0.449, "total luciferase, % of control": 90.8, "Call": "inactive"}
{"gene knocked down": "UBAP2 (ubiquitin associated protein 2)", "siRNA no.": 2, "total luciferase, z-score": -0.952, "total luciferase, % of control": 63, "Call": "inactive"}
{"gene knocked down": "UBAP2 (ubiquitin associated protein 2)", "siRNA no.": 3, "total luciferase, z-score": -0.824, "total luciferase, % of control": 65.5, "Call": "inactive"}
{"gene knocked down": "LYPD6B (LY6/PLAUR domain containing 6B)", "siRNA no.": 1, "total luciferase, z-score": 0.305, "total luciferase, % of control": 88, "Call": "inactive"}
{"gene knocked down": "LYPD6B (LY6/PLAUR domain containing 6B)", "siRNA no.": 2, "total luciferase, z-score": -0.168, "total luciferase, % of control": 78.5, "Call": "inactive"}
{"gene knocked down": "LYPD6B (LY6/PLAUR domain containing 6B)", "siRNA no.": 3, "total luciferase, z-score": 0.568, "total luciferase, % of control": 93.2, "Call": "inactive"}
{"gene knocked down": "ARPC2 (actin related protein 2/3 complex subunit 2)", "siRNA no.": 1, "total luciferase, z-score": -0.055, "total luciferase, % of control": 80.8, "Call": "inactive"}
{"gene knocked down": "ARPC2 (actin related protein 2/3 complex subunit 2)", "siRNA no.": 2, "total luciferase, z-score": -1.43, "total luciferase, % of control": 53.5, "Call": "inactive"}
{"gene knocked down": "ARPC2 (actin related protein 2/3 complex subunit 2)", "siRNA no.": 3, "total luciferase, z-score": -0.279, "total luciferase, % of control": 76.3, "Call": "inactive"}
{"gene knocked down": "MYB (MYB proto-oncogene, transcription factor)", "siRNA no.": 1, "total luciferase, z-score": 1.15, "total luciferase, % of control": 105, "Call": "inactive"}
{"gene knocked down": "MYB (MYB proto-oncogene, transcription factor)", "siRNA no.": 2, "total luciferase, z-score": 2.25, "total luciferase, % of control": 127, "Call": "inactive"}
{"gene knocked down": "MYB (MYB proto-oncogene, transcription factor)", "siRNA no.": 3, "total luciferase, z-score": 0.341, "total luciferase, % of control": 88.7, "Call": "inactive"}
{"gene knocked down": "LYSMD1 (LysM domain containing 1)", "siRNA no.": 1, "total luciferase, z-score": -0.557, "total luciferase, % of control": 70.8, "Call": "inactive"}
{"gene knocked down": "LYSMD1 (LysM domain containing 1)", "siRNA no.": 2, "total luciferase, z-score": 0.237, "total luciferase, % of control": 86.6, "Call": "inactive"}
{"gene knocked down": "LYSMD1 (LysM domain containing 1)", "siRNA no.": 3, "total luciferase, z-score": -0.424, "total luciferase, % of control": 73.5, "Call": "inactive"}
{"gene knocked down": "CNIH3 (cornichon family AMPA receptor auxiliary protein 3)", "siRNA no.": 1, "total luciferase, z-score": -0.356, "total luciferase, % of control": 74.8, "Call": "inactive"}
{"gene knocked down": "CNIH3 (cornichon family AMPA receptor auxiliary protein 3)", "siRNA no.": 2, "total luciferase, z-score": -0.624, "total luciferase, % of control": 69.5, "Call": "inactive"}
{"gene knocked down": "CNIH3 (cornichon family AMPA receptor auxiliary protein 3)", "siRNA no.": 3, "total luciferase, z-score": 0.435, "total luciferase, % of control": 90.5, "Call": "inactive"}

Limited to “total luciferase, % of control”, for 2 of the entries above:
BAALC (BAALC binder of MAP3K1 and KLF4) #2	85.1
BAALC (BAALC binder of MAP3K1 and KLF4) #3	90.7
